Among the data in PubChem BioAssay AID493014 (National Center for Advancing Translational Sciences (NCATS), 2011) are AC50 values, retold here.

The list shows a part of the results. These are further read-outs of the screen, such as a control signal, another cell line or another target. No call is given for them. Compounds called inactive in the main read-out are mostly missing here. The note in brackets gives the kind of curve behind each potency; many fits are weak.

The nature of the assay: qHTS Assay to Find Inhibitors of Chronic Active B-Cell Receptor Signaling. As to conditions: ABC-DLBCL IkBa-CBG/CBR reporter, luminescence ratio (green luciferase fused to IkBa over red control in TMD8 lymphoma cells), 4 h. The method in brief: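 Concentration-response series (up to 46 uM) were applied to TMD8 dual-reporter cells for 4 h at 37C with doxycycline. Green/red ratio, after filter-overlap correction, defined %Activity; red signal alone was normalised to basal cells and zero luminescence.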
A general note: Quantitative high-throughput screening tests each substance at several concentrations.

[1] abbreviates: measured here: IkBa-CBG green luminescence.
[2] abbreviates: measured here: CBR red luminescence, cell number.

For orientation: AC50 means the midpoint of the concentration-response curve, whichever way the signal moves. With `Cc1cc(N/N=C/c2ccc(F)cc2)nc(NCc2ccccc2)n1`, the AC50 under setting [1] is 15.8 µM [falling, single point].
On to `CCn1c(SCC(=O)Nc2ccc3c(c2)OCO3)nc2ccccc21`, for which, under setting [2], the AC50 is 8.2 µM [falling, partial curve, poor fit].
Still for that read-out and setting: with `COc1ccc(CNCCC(c2ccc(OC(C)C)cc2)c2ccccc2OC)cc1` (stereo not given) the figure was 17.8 µM [falling, single point].
For the compound `COc1cc(OC)c2c(-c3cccc(-c4ccc(O)cc4)c3)cc(=O)oc2c1`, the AC50 runs as follows: under setting [2], 2.59 µM [rising, full curve]; under setting [1], 3.66 µM [falling, full curve].
As for `COc1ccc(C=NNC(=O)c2cc(C)oc2C)cc1O`, the AC50 under setting [2] is 9.2 µM [falling, partial curve].
As to `Cc1ccc(NC(=O)CC2Nc3ccccc3NC2=O)cc1Cl` (stereo not given), under setting [2], the AC50 is 7.08 µM [falling, partial curve].
On the same count and under the same terms, the same measure for `CCCNc1c(N)c(=O)oc2ccccc12`: 0.291 µM [falling, full curve].
Still for that read-out and setting: with `CCCCOc1ccccc1NC(=O)c1ccco1` the figure was 25.9 µM [falling, single point].
On the same count and under the same terms, with `O=C(Nc1nc2c(c(=O)[nH]1)CCCC2)C1CC1` the figure was 11.6 µM [falling, partial curve, poor fit]; with `O=C1NC(=Nc2ccccc2Cl)S/C1=C\c1ccc(C(=O)O)cc1`, 0.501 µM [falling, full curve]; with `Cc1ccc(N=Cc2c(O)c3ccccc3oc2=O)c(C)c1`, 6.31 µM [falling, partial curve, poor fit].
As to `COc1ccc(-n2c(-c3ccc(Cl)cc3)c[nH]c2=S)cc1`, the AC50 under setting [2] is 35.5 µM [falling, single point].
For `N#CC(C#N)=Cc1ccc(-c2ccc(S(=O)(=O)N=C(N)N)cc2)o1`, the concentration at half-maximal activity (AC50) under setting [2] is 14.6 µM [falling, partial curve, poor fit].
On to `COc1cc(OC)c(C2Oc3nc(SC)nnc3-c3ccccc3N2C(C)=O)cc1OC` (stereo not given), for which the AC50 under setting [2] was 20.6 µM [rising, single point].
On the same count and under the same terms, with `Cn1nc(OCc2ccccc2)ccc1=O` the figure was 2.82 µM [falling, partial curve, poor fit]; with `CSc1nc(C)cc(OCCO)n1`, 0.231 µM [falling, full curve, poor fit].
On the same count and under the same terms, the same measure for `COc1cc2cc(CN(C(=O)Nc3ccccc3)C3CCCC3)c(=O)[nH]c2cc1OC`: 28.2 µM [falling, single point]; for `N/C(=N\OC(=O)/C=C/c1ccc(Br)cc1)c1ccccn1`: 4.11 µM [rising, single point]; for `Cc1csc(=O)n1CCC(=O)OCC(=O)NNC(=O)c1ccc(Br)cc1`: 13 µM [rising, partial curve, poor fit].
